# Percent effect of library compounds

Mtb glucose medium: 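Whole-cell growth test on Mycobacterium tuberculosis, read after 3 days in glucose-containing 7H9 medium; the read-out is not stated. Concentration: 50 µM. The record gives no direction; compounds that gave an IC50 in retests scored well above the rest, so higher reads as more growth inhibition. Size under these conditions: about 69,000 compounds, about 760 of them at 50% or above in at least one test.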
Mtb cholesterol medium: 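Phenotypic screen: M. tuberculosis growth, cholesterol and DPPC medium, 4 days; the read-out is not stated. Tested at 50 µM. The record gives no direction; compounds that gave an IC50 in retests scored well above the rest, so higher reads as more growth inhibition. Size under these conditions: about 69,000 compounds, about 370 of them at 50% or above in at least one test.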

Each number is a percent effect as filed.
How 0% and 100% were set is not recorded. Most values in the screen are low, and negative values occur.
The compounds are a random part of those screened.
Two or more numbers in one place are separate tests of the same structure; such repeats can differ widely.

{"structure": "CC(=O)Nc1ncc(S(=O)(=O)N2CCC(C)CC2)s1", "Mtb glucose medium": 0.8342, "Mtb cholesterol medium": -14.98}
{"structure": "COCC1c2c(cnn2CC2CC2)CCN1Cc1nccs1.O=C(O)C(F)(F)F.O=C(O)C(F)(F)F", "stereo": "centres unmarked", "Mtb glucose medium": -16.27, "Mtb cholesterol medium": -9.091}
{"structure": "CC(=O)c1ccc(C(=O)N2CCCCC2c2nc[nH]n2)cc1", "stereo": "centres unmarked", "Mtb glucose medium": -23.19, "Mtb cholesterol medium": -12.6}
{"structure": "Cc1cnn(CCNCC(=O)NC(C)c2ccc3c(c2)OCCO3)c1", "stereo": "centres unmarked", "Mtb glucose medium": 7.057, "Mtb cholesterol medium": 5.641}
{"structure": "O=C(c1ccc(=O)[nH]n1)N1CCCC(O)(CN2CCC(F)(F)CC2)CC1", "stereo": "centres unmarked", "Mtb glucose medium": -9.966, "Mtb cholesterol medium": -19.04}
{"structure": "Cc1ccc(S(=O)(=O)N(C)Cc2nccs2)cc1N(C)C", "Mtb glucose medium": "-24.21 & -4.073", "Mtb cholesterol medium": -25.61}
{"structure": "CN(Cc1cccc(Cl)c1)Cc1nnsc1Cl", "Mtb glucose medium": -8.157, "Mtb cholesterol medium": 28.43}
{"structure": "O=C(O)C(F)(F)F.[H][C@@]12COC[C@]1(CN(C)C)CN(C(=O)c1ccc(F)cc1C)C2", "Mtb glucose medium": "22.1 & 2.251", "Mtb cholesterol medium": 15.53}
{"structure": "CNC(=O)NC(=O)C(NCc1cccs1)c1ccccc1", "stereo": "centres unmarked", "Mtb glucose medium": "-4.108 & -24.57", "Mtb cholesterol medium": -36.95}
{"structure": "O=C(c1cnccn1)N1CCCC(Cc2cncc3ccccc23)C1", "stereo": "centres unmarked", "Mtb glucose medium": -12.09, "Mtb cholesterol medium": -8.714}
{"structure": "CCn1nc(CC(C)C)cc1C(=O)N1C[C@H](O)[C@@H](N2CCCCC2)C1", "Mtb glucose medium": 0.3615, "Mtb cholesterol medium": 9.081}
{"structure": "CNS(=O)(=O)c1cccc(C(C)NCc2ccccc2OC)c1", "stereo": "centres unmarked", "Mtb glucose medium": "-1.596 & -24.14", "Mtb cholesterol medium": 6.28}
{"structure": "COCC1CCN(C(=O)c2cccc(S(=O)(=O)NCC3(C)COC3)c2)C1", "stereo": "centres unmarked", "Mtb glucose medium": 33.56, "Mtb cholesterol medium": 10.89}
{"structure": "Cc1cc(-c2cnc(NCc3ccccn3)nc2C(C)C)on1", "Mtb glucose medium": 45.3, "Mtb cholesterol medium": 17.18}
{"structure": "Cc1cc(N(C)Cc2cc(C)on2)n2nc(C)c(C)c2n1", "Mtb glucose medium": "76.73 & 72", "Mtb cholesterol medium": 66.13}
{"structure": "CC(CN1CCCC1=O)NC(=O)Nc1ccccc1Cn1cccn1", "stereo": "centres unmarked", "Mtb glucose medium": "-1.901 & 15.48", "Mtb cholesterol medium": -28.5}
{"structure": "Cn1cnnc1C1CCN(C(=O)CCCOc2ccccc2F)CC1", "Mtb glucose medium": -0.6614, "Mtb cholesterol medium": -8.119}
{"structure": "Cc1cnn(CCC(=O)NCc2ccc(N(C)C)c(C)c2)c1", "Mtb glucose medium": 21.25, "Mtb cholesterol medium": "-0.5586 & 9.109"}
{"structure": "Cc1nn(C)c2ncc(CN3CCN(Cc4ccco4)CC3)cc12", "Mtb glucose medium": -9.373, "Mtb cholesterol medium": 5.442}
{"structure": "COCCN1C(=O)CCC12CCN(c1ncc(F)cn1)CC2.O=C(O)C(F)(F)F", "Mtb glucose medium": "-5.544 & -20.74", "Mtb cholesterol medium": "6.998 & -4.612"}
{"structure": "O=C1Nc2ccccc2CNC12CCN(CC1CCNC1)CC2", "stereo": "centres unmarked", "Mtb glucose medium": -17.37, "Mtb cholesterol medium": -23.08}
{"structure": "O=C(NCCN1CCOCC1)c1cc(-c2ccc(Cl)s2)[nH]n1", "Mtb glucose medium": 4.694, "Mtb cholesterol medium": -4.246}

The last 2 entries again:

- O=C1Nc2ccccc2CNC12CCN(CC1CCNC1)CC2 (centres unmarked) : Mtb glucose medium: -17.37%; Mtb cholesterol medium: -23.08%
- O=C(NCCN1CCOCC1)c1cc(-c2ccc(Cl)s2)[nH]n1 : Mtb glucose medium: 4.694%; Mtb cholesterol medium: -4.246%

Source: ChEMBL document CHEMBL3988442, “University of Dundee, Small-Polar-MMV Screening Library” (2021).